Some results were stated once for a whole list of compounds, not compound by compound.
Target: T1, purified Cdc25-C recombinant enzyme (MBP-Cdc25C protein) (Homo sapiens, UniProt P30307)
T1 construct: made in house
T1 sequence (P30307 1-473): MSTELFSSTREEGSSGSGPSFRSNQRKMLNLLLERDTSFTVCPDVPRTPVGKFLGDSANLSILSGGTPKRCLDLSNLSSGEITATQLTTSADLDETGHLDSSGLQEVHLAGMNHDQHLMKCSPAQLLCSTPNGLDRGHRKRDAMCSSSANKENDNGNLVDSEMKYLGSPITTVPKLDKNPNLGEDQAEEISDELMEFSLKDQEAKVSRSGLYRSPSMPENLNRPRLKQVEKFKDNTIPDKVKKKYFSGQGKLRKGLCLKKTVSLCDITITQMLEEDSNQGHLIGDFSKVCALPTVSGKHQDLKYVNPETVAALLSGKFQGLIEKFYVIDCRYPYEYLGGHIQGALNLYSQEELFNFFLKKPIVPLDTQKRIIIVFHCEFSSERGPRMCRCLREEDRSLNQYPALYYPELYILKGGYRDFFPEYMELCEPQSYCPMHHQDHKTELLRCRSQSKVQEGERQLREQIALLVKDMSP
Assay: Phosphatase activity of the purified Cdc25C recombinant enzyme (OMFP dephosphorylation, fluorescence)
Assay type: biochemical
Settings: OMFP 500 μM, 4 hours at 30° C., three independent experiments

| Structure (SMILES) | IC50 [µM] |
| --- | --- |
| CN(C)CCNC1=CC(=O)c2sc(-c3c(F)cccc3F)nc2C1=O [Example 1, 2-(2,6-difluorophenyl)-5-{[2-(dimethylamino)ethyl]amino}-1,3-benzothiazole-4,7-dione] | ≤ 10 |
| CN(C)CCNC1=CC(=O)c2sc(-c3cc(Cl)sc3Cl)nc2C1=O [Example 2, 2-(2,5-dichlorothien-3-yl)-5-{1-[2-(dimethylamino)ethyl]amino}-1,3-benzothiazole-4,7-dione] | ≤ 10 |
| O=C1C(NCCN2CCCC2)=CC(=O)c2sc(-c3cc(Cl)sc3Cl)nc21 [Example 3, 2-(2,5-dichlorothien-3-yl)-5-[(2-pyrrolidin-1-ylethyl)amino]-1,3-benzothiazole-4,7-dione] | ≤ 10 |
| CN(C)CCNC1=CC(=O)c2sc(-c3ccc(F)cc3)nc2C1=O [Example 4, 5-{[2-(dimethylamino)ethyl]amino}-2-(4-fluorophenyl)-1,3-benzothiazole4,7-dione] | ≤ 10 |
| O=C1C(NCCN2CCCC2)=CC(=O)c2sc(-c3ccc(F)cc3)nc21 [Example 5, 2-(4-fluorophenyl)-5-[(2-pyrrolidin-1-ylethyl)amino]-1,3-benzothiazole-4,7-dione] | ≤ 10 |
| CN(C)CCNC1=CC(=O)c2sc(-c3c(F)cccc3Cl)nc2C1=O [Example 6, 2-(2-chloro-6-fluorophenyl)-5-{[2-(dimethylamino)ethyl]amino}-1,3-benzothiazole4,7-dione] | ≤ 10 |
| O=C1C(NCCN2CCCC2)=CC(=O)c2sc(-c3c(F)cccc3Cl)nc21 [Example 7, 2-(2-chloro-6-fluorophenyl)-5-[(2-pyrrolidin-1-ylethyl)amino]-1,3-benzothiazole-4,7-dione] | ≤ 10 |
| CN(C)CCNC1=CC(=O)c2nc(-c3ccc(F)cc3)sc2C1=O [Example 8, 6-{[2-(dimethylamino)ethyl]amino}-2-(4-fluorophenyl)-1,3-benzothiazole4,7-dione] | ≤ 10 |
| CN(C)CCNC1=CC(=O)c2nc(-c3cccc4ccccc34)sc2C1=O [Example 9, 6-{[2-(dimethylamino)ethyl]amino}-2-(1-naphthyl)-1,3-benzothiazole-4,7-dione] | ≤ 10 |
| CN(C)CCNC1=CC(=O)c2nc(-c3ccc(-c4ccccc4)cc3)sc2C1=O [Example 10, 2-(1,1′-biphenyl-4-yl)-6-{[2-(dimethylamino)ethyl]amino}-1,3-benzothiazole-4,7-dione] | ≤ 10 |
| CCCCc1ccc(-c2nc3c(s2)C(=O)C(NCCN(C)C)=CC3=O)cc1 [Example 11, 2-(4-butylphenyl)-6-{[2-(dimethylamino)ethyl]amino}-1,3-benzothiazole-4,7-dione] | ≤ 10 |
| CN(C)CCNC1=CC(=O)c2nc(-c3c(F)cccc3Cl)sc2C1=O [Example 12, 2-(2-chloro-6fluorophenyl)-6-{[2-(dimethylamino)ethyl]amino}-1,3-benzothiazole-4,7-dione] | ≤ 10 |
| CN(C)CCNC1=CC(=O)c2nc(-c3ccc4ccccc4c3)sc2C1=O [Example 13, 6-{[2-(dimethylamino)ethyl]amino}-2-(2-naphthyl)-1,3-benzothiazole-4,7-dione] | ≤ 10 |
| CN(C)CCNC1=CC(=O)c2nc(-c3cc(F)ccc3F)sc2C1=O [Example 14, 2-(2,5-difluorophenyl)-6-{[2-(dimethylamino)ethyl]amino}-1,3-benzothiazole-4,7-dione] | ≤ 10 |
| CN(C)CCNC1=CC(=O)c2oc(-c3cc(F)ccc3F)nc2C1=O [Example 15, 2-(2,5-difluorophenyl)-5-{[2-(dimethylamino)ethyl]amino}-1,3-benzoxazole-4,7-dione] | ≤ 10 |
| CN(C)CCNC1=CC(=O)c2oc(-c3ccccc3Br)nc2C1=O [Example 16, 2-(2-bromophenyl)-5-{[2-(dimethylamino)ethyl]amino}-1,3-benzoxazole4,7-dione] | ≤ 10 |
| CN(C)CCNC1=CC(=O)c2oc(-c3cccc(Br)c3)nc2C1=O [Example 17, 2-(3-bromophenyl)-5-{[2-(dimethylamino)ethyl]amino}-1,3-benzoxazole-4,7-dione] | ≤ 10 |
| CN(C)CCNC1=CC(=O)c2oc(-c3ccc(F)cc3)nc2C1=O [Example 18, 5-{[2-(dimethylamino)ethyl]amino}-2-(4-fluorophenyl)-1,3-benzoxazole-4,7-dione] | ≤ 10 |
| CN(C)CCNC1=CC(=O)c2oc(-c3cc(F)cc(F)c3)nc2C1=O [Example 19, 2-(3,5-difluorophenyl)-5-{[2-(dimethylamino)ethyl]amino}-1,3-benzoxazole-4,7-dione] | ≤ 10 |
| CN(C)CCNC1=CC(=O)c2oc(-c3cccc(F)c3F)nc2C1=O [Example 20, 2-(2,3-difluorophenyl)-5-{[2-(dimethylamino)ethyl]amino}-1,3-benzoxazole-4,7-dione] | ≤ 10 |

| Structure (SMILES) | IC50 [µM] |
| --- | --- |
| CN(C)CCNC1=CC(=O)c2oc(-c3cc(F)c(F)c(F)c3)nc2C1=O [Example 21, 5-{[2-(dimethylamino)ethyl]amino}-2-(3,4,5-trifluorophenyl)-1,3-benzoxazole4,7-dione] | ≤ 10 |
| CCc1ccc(-c2nc3c(o2)C(=O)C=C(NCCN(C)C)C3=O)cc1 [Example 22, 5-{[2-(dimethylamino)ethyl]amino}-2-(4-ethylphenyl)-1,3-benzoxazole4,7-dione] | ≤ 10 |
| CN(C)CCNC1=CC(=O)c2oc(Cc3ccccc3)nc2C1=O [Example 23, 2-benzyl-5-{[2-(dimethylamino)ethyl]amino}-1,3-benzoxazole-4,7-dione] | ≤ 10 |
| O=C1C(NCCN2CCCC2)=CC(=O)c2oc(-c3cccc(Br)c3)nc21 [Example 24, 2-(3-bromophenyl)-5-[(2-pyrrolidin-1-ylethyl)amino]1,3-benzoxazole4,7-dione] | ≤ 10 |
| O=C1C(NCCN2CCCC2)=CC(=O)c2oc(-c3cc(F)cc(F)c3)nc21 [Example 25, 2-(3,5-difluorophenyl)-5-[(2-pyrrolidin-1-ylethyl)amino]-1,3-benzoxazole-4,7-dione] | ≤ 10 |
| O=C1C(NCCN2CCCC2)=CC(=O)c2oc(-c3cc(F)c(F)c(F)c3)nc21 [Example 26, 5-[(2-pyrrolidin-1-ylethyl)amino]-2-(3,4,5-trifluorophenyl)-1,3-benzoxazole-4,7-dione] | ≤ 10 |
| CN(C)CCNC1=CC(=O)c2nc(-c3cc(F)ccc3F)oc2C1=O [Example 27, 2-(2,5-difluorophenyl)-6-{[2-(dimethylamino)ethyl]amino}-1,3-benzoxazole-4,7-dione] | ≤ 10 |
| CN(C)CCNC1=CC(=O)c2nc(-c3ccccc3Br)oc2C1=O [Example 28, 2-(2-bromophenyl)-6-{[2-(dimethylamino)ethyl]amino}-1,3-benzoxazole4,7-dione] | ≤ 10 |
| CN(C)CCNC1=CC(=O)c2nc(-c3cccc(Br)c3)oc2C1=O [Example 29, 2-(3-bromophenyl)-6-{[2-(dimethylamino)ethyl]amino}-1,3-benzoxazole4,7-dione] | ≤ 10 |
| CN(C)CCNC1=CC(=O)c2nc(-c3cccc(Cl)c3)oc2C1=O [Example 30, 2-(3-chlorophenyl)-6-{[2-(dimethylamino)ethyl]amino}-1,3-benzoxazole4,7-dione] | ≤ 10 |
| CN(C)CCNC1=CC(=O)c2nc(-c3ccc(Br)cc3)oc2C1=O [Example 31, 2-(4-bromophenyl)-6-{[2-(dimethylamino)ethyl]amino}-1,3-benzoxazole-4,7-dione] | ≤ 10 |
| CN(C)CCNC1=CC(=O)c2nc(-c3cc(Br)cc(Br)c3)oc2C1=O [Example 32, 2-(3,5-dibromophenyl)-6-{[2-(dimethylamino)ethyl]amino}-1,3-benzoxazole-4,7-dione] | ≤ 10 |
| CN(C)CCNC1=CC(=O)c2nc(-c3ccc(F)cc3)oc2C1=O [Example 33, 6-{[2-(dimethylamino)ethyl]amino}-2-(4-fluorophenyl)-1,3-benzoxazole4,7-dione] | ≤ 10 |
| CN(C)CCNC1=CC(=O)c2nc(-c3cc(F)cc(F)c3)oc2C1=O [Example 34, 2-(3,5-difluorophenyl)-6-{[2-(dimethylamino)ethyl]amino}-1,3-benzoxazole-4,7-dione] | ≤ 10 |
| CN(C)CCNC1=CC(=O)c2nc(-c3cccc(F)c3F)oc2C1=O [Example 35, 2-(2,3-difluorophenyl)-6-{[2-(dimethylamino)ethyl]amino}-1,3-benzoxazole-4,7-dione] | ≤ 10 |
| CN(C)CCNC1=CC(=O)c2nc(-c3cc(F)c(F)c(F)c3)oc2C1=O [Example 36, 6-{[2-(dimethylamino)ethyl]amino}-2-(3,4,5-trifluorophenyl)-1,3-benzoxazole4,7-dione] | ≤ 10 |
| Cc1cc(-c2nc3c(o2)C(=O)C(NCCN(C)C)=CC3=O)ccc1Br [Example 37, 2-(4-bromo-3-methylphenyl)-6-{[2-(dimethylamino)ethyl]amino}-1,3-benzoxazole-4,7-dione] | ≤ 10 |
| CCc1ccc(-c2nc3c(o2)C(=O)C(NCCN(C)C)=CC3=O)cc1 [Example 38, 6-{[2-(dimethylamino)ethyl]amino}-2-(4-ethylphenyl)-1,3-benzoxazole-4,7-dione] | ≤ 10 |
| CN(C)CCNC1=CC(=O)c2nc(-c3ccc(Br)cc3Cl)oc2C1=O [Example 39, 2-(4-bromo-2-chlorophenyl)-6-{[2-(dimethylamino)ethyl]amino}-1,3-benzoxazole4,7-dione] | ≤ 10 |
| COc1cc(-c2nc3c(o2)C(=O)C(NCCN(C)C)=CC3=O)cc(OC)c1OC [Example 40, 6-{[2-(dimethylamino)ethyl]amino}-2-(3,4,5-trimethoxyphenyl)-1,3-benzoxazole-4,7-dione] | ≤ 10 |

Source: patent publication US7335674B2, “Benzothiazole-4,7-diones and benzoxazole-4,7-diones with substituents in position 5 or 6 and method for production thereof” (Societe de Conseils de Recherches et d'Applications …, priority 2003, dated 2008)
